No constants are given. Whether binding was seen depends on the method and setting. In cells and extracts the contact can be indirect. Binding can be weak; no strength is given. Where a sequence is shown, tags or fusion partners need not be part of it.
Columns and labels:
GST-EVA1A60–152 (human) = molecular target: T1, GST-EVA1A60–152 (human) (UniProt Q9H8M9); assay: pull-down; GST or GST-EVA1A fusion proteins on glutathione-Sepharose 4B beads, mixed with whole-cell lysates of plasmid-transfected (HeLa) cells for 4 h at 4 °C, five washes, western blot; only the target purified
T1 sequence: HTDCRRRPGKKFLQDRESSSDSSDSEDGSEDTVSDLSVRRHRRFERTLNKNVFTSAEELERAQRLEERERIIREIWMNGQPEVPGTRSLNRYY

Chains of the proteins cited; added tags and fusions are not shown. Lines headed by an entry give the natural chain unless they say otherwise; changes in a name come on top.
UniProt Q676U5: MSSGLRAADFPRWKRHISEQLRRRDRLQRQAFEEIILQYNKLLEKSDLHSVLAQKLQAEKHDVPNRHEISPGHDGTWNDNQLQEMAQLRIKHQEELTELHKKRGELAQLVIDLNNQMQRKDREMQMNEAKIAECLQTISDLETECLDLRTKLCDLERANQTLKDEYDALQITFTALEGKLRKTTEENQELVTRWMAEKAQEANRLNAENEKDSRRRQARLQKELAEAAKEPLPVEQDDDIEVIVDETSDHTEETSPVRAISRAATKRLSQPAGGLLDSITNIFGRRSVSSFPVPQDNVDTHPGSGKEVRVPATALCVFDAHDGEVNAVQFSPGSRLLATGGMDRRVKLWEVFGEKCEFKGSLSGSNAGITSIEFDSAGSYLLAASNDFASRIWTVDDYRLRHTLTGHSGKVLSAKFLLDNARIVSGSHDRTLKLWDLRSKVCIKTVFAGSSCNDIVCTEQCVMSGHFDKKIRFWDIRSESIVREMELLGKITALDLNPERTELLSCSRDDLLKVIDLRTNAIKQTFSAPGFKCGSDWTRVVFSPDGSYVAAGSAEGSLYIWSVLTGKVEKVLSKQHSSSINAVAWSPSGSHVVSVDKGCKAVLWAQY

FLAG-ATG16L1^Δ300 = FLAG-ATG16L1^Δ300 (UniProt Q676U5); assay: co-IP; HeLa cells co-transfected for 24 h; total cell extracts in RIPA lysis buffer (1 mg per sample), IP with anti-FLAG or control mIgG and protein G sepharose, 4 h at 4 °C, five washes; GFP and FLAG detected by western blot

In the case of “FLAG-ATG16L1^Δ300 (from UniProt Q676U5) (domain or fragment)”, the binding (GST-EVA1A60–152 (human)) is reported as “binds”.

B1: GFP-EVA1A (protein, UniProt Q9H8M9 1-152)
chain: MRLPLSHSPEHVEMALLSNILAAYSFVSENPERAALYFVSGVCIGLVLTLAALVIRISCHTDCRRRPGKKFLQDRESSSDSSDSEDGSEDTVSDLSVRRHRRFERTLNKNVFTSAEELERAQRLEERERIIREIWMNGQPEVPGTRSLNRYY
B1 was tested, and the binding (FLAG-ATG16L1^Δ300) was “binds”.

Reference: paper PMC5108317
